Measurements from PubChem BioAssay AID540276 (National Center for Advancing Translational Sciences (NCATS), 2011).
Hit rate of the full screen: of about 300,000 compounds, about 5,400 (1.8%) were called active. The shares of active, inactive and inconclusive entries below differ from those in the screen. The call rests on the fitted dose curve; tested in HEK293 cells. Potencies beside an inconclusive call are fits to weak or partial responses and may not hold up.

Test: qHTS for inhibitors of binding or entry into cells for Marburg Virus
Settings: Marburg virus pseudotyped entry inhibition, cell reporter; activity change, negative = inhibition: at 37.8 µM (top of the series) unless noted
On the % scale 0 is the no-effect control and ±100 the full control effect; potency means the concentration at half of the fitted maximal effect.

Row | SMILES | Potency | activity change, negative = inhibition
1 | O=C1CN(C(=O)c2ccc(S(=O)(=O)N3CCCCC3)cc2)C(c2ccc(F)cc2)c2cc(Cl)ccc2N1 (stereo unspecified) | active: 8.91 µM | 
2 | Clc1ccccc1-c1nnc2sc(-c3cccs3)nn12 |  | inactive: 11.4%
3 | Cc1cccc(C)c1NC(=O)CCCSc1nnc(-c2ccc(F)cc2)n1-c1ccccc1 | inconclusive: 10.3 µM [inhibitor, partial curve, poor fit] | 
4 | COC(=O)C1(Cc2ccccc2)NC(c2ccc(F)cc2)C2C(=O)N(C)C(=O)C21 (stereo unspecified) |  | inactive: 3.53%
5 | COc1ccc(-c2c[n+]3c4n2CCCCC4=C(c2ccc(Br)cc2)C3)cc1 | inconclusive: 29.1 µM [inhibitor, single point] | 
6 | O=C(N1CCCC1)C12CC3CCC(CC(C3)C1)C2 | inconclusive: 35.5 µM [inhibitor, single point] | 
7 | O=C(CSc1nnc(-c2ccco2)n1Cc1ccccc1)c1ccccc1 | inconclusive: 6.31 µM [inhibitor, single point] | 
8 | Cc1cc(C)c(C#N)c(SCCN2CCOCC2)n1 | inconclusive: 1.26 µM [inhibitor, single point] | 
9 | CCCCn1c(O)c(C(CC)=NCc2ccc(F)cc2)c(=O)[nH]c1=O |  | inactive: -16.5%
10 | NC(=O)C1CC(=O)N(Cc2ccc3c(c2)OCO3)C(=Nc2ccccc2)S1 (stereo unspecified) |  | inactive: 12%
11 | CNC(=S)NNC(=O)c1ccccc1Br | inconclusive: 5.01 µM [activator, full curve, poor fit] | 
12 | CCCCNC(=S)Nc1ccc(Cl)cc1 |  | inactive: -25.4%
13 | COc1cccc2c1C(=O)CC2NC(=O)C(F)(F)F (stereo unspecified) |  | inactive: 10.8%
14 | Cc1cc(C)cc(N(C(=O)CNC(=O)c2cccs2)C(C(=O)NC2CCCC2)c2cccnc2)c1 (stereo unspecified) | inconclusive: 29.1 µM [inhibitor, single point] | 
15 | Cc1ccc(N(CC(=O)Nc2ccc3c(c2)OCCO3)S(C)(=O)=O)cc1 | inconclusive: 12.6 µM [activator, partial curve, poor fit] | 
16 | COc1cc2nc(N3CCN(c4cc(C)ccc4C)CC3)nc(N)c2cc1OC | active: 4.47 µM | 
17 | c1ccc(CN(Cc2cccs2)C(c2cccs2)c2nnnn2C2CCCC2)cc1 (stereo unspecified) | inconclusive: 35.5 µM [inhibitor, partial curve, poor fit] | 
18 | CC(=O)c1ccc(OCc2cc(C(=O)N(C)C(C)c3ccon3)no2)cc1 (stereo unspecified) |  | inactive: -1.27%
19 | COC(=O)c1c(-c2cccc3ccccc23)csc1NC(=O)Cc1ccc(OC)c(OC)c1 | inconclusive: 10 µM [inhibitor, partial curve, poor fit] | 
20 | COc1ccc(/C=N/Nc2ncnc3c2[nH]c2ccccc23)c(OC)c1OC | inconclusive: 5.62 µM [activator, single point] | 
21 | COc1ccc(CCCC(=O)N/N=C/c2cccc(OC)c2O)cc1C | inconclusive: 8.2 µM [inhibitor, partial curve, poor fit] | 
22 | CC(C)OC(=O)c1c(N)n(CC2CCCO2)c2nc3ccccc3nc12 (stereo unspecified) | inconclusive: 3.98 µM [inhibitor, partial curve, poor fit] | 
23 | CCCSC1=C(C#N)C(c2cccnc2)C(C(=O)OCC)=C(c2ccccc2)N1 (stereo unspecified) | inconclusive: 8.91 µM [inhibitor, partial curve] | 
24 | Cc1[nH][nH]c(=O)c1C(c1ccccc1[N+](=O)[O-])C(C#N)C#N (stereo unspecified) |  | inactive: -0.398% [at 46.1 µM]

Among those listed so far, 2 have bromine.
Row | SMILES | Potency | activity change, negative = inhibition
5 | COc1ccc(-c2c[n+]3c4n2CCCCC4=C(c2ccc(Br)cc2)C3)cc1 | inconclusive: 29.1 µM [inhibitor, single point] | 
11 | CNC(=S)NNC(=O)c1ccccc1Br | inconclusive: 5.01 µM [activator, full curve, poor fit] | 

Additional compounds:

Row | SMILES | Potency | activity change, negative = inhibition
25 | CCOC(=O)C1CCCN(c2ncnc3c2oc2ccccc23)C1 (stereo unspecified) |  | inactive: 4%
26 | CCCCCCN1C[C@H](O)[C@@H](n2cc(C3CC3)nn2)C[C@H]1c1ccc(Cl)cc1 | inconclusive: 15.8 µM [inhibitor, partial curve, poor fit] | 
27 | O=C(CCSc1nnc(-c2ccncc2)o1)Nc1ccc(Cl)cc1 | inconclusive: 23.1 µM [inhibitor, single point] | 
28 | CC(C)c1ccc(CN(C(=O)/C=C/c2ccco2)C2CCS(=O)(=O)C2)cc1 (stereo unspecified) |  | inactive: -5.19%
29 | CC(=O)N1CCSc2ccc(S(=O)(=O)NCCc3cccc(C)c3)cc21 | inconclusive: 3.98 µM [inhibitor, partial curve] | 
30 | CCOC(=O)C1CCN(C(=O)CSc2n[nH]c(=O)[nH]c2=O)CC1 | inconclusive: 0.562 µM [inhibitor, single point] | 
31 | CCN1CCCC1CNS(=O)(=O)c1ccc(Cl)c(C(F)(F)F)c1 (stereo unspecified) | inconclusive: 11.2 µM [inhibitor, partial curve] | 
32 | Cc1ccccc1-c1noc(-c2ccc(N3CCC(C)CC3)c([N+](=O)[O-])c2)n1 | inconclusive: 5.01 µM [activator, single point] | 
33 | COc1ccc(OC)c(S(=O)(=O)N2CCc3ccccc32)c1 | inconclusive: 25.1 µM [inhibitor, single point] | 
34 | O=[N+]([O-])c1ccc(Cl)c(S(=O)(=O)NCC2CCCO2)c1 (stereo unspecified) | inconclusive: 0.794 µM [inhibitor, single point] | 
35 | CCCOC1CCCN(C(=O)c2ccc(OC3CCN(C(=O)CCOC)CC3)cc2)C1 (stereo unspecified) |  | inactive: 5.42%
36 | CCOc1ccc(/C=C/C(O)=C2/C(=O)N(C)C3(C)CC2c2ccccc2O3)cc1OC (stereo unspecified) | inconclusive: 5.01 µM [inhibitor, full curve, poor fit] | 
37 | CN(C)CCN(C(=O)C1=COCCO1)c1nc2ccc(Cl)cc2s1 | inconclusive: 35.5 µM [inhibitor, single point] | 
38 | COc1ccc(N=Cc2ccc(CNS(=O)(=O)c3ccc(Cl)cc3)o2)cc1 | inconclusive: 17.8 µM [inhibitor, single point] | 
39 | Cc1ccc(Sc2nc([N+](=O)[O-])nn2C)cc1 | inconclusive: 5.62 µM [inhibitor, single point] | 
40 | CCCOc1ccc(C2=NC(c3ccncc3)=Nc3ccc(C)cc3N2)cc1 | inconclusive: 35.5 µM [inhibitor, single point] | 
41 | COc1ccc(-n2c(C)cc(/C=C(\C#N)C(=O)NCc3ccco3)c2C)cc1 |  | inactive: 13.9%
42 | Nc1ccccc1-c1ccc(Cl)cc1 |  | inactive: 7.22%
43 | Cc1ccc(NC(=O)c2ccc(OC(=O)C(C)Oc3ccc(Cl)cc3C)cc2)cc1 (stereo unspecified) | inconclusive: 3.98 µM [activator, full curve] | 
44 | COc1ccc(-c2nn(-c3ccccc3)cc2C(=O)N(C)CC(=O)Nc2ccc(N3CCOCC3)cc2)cc1 |  | inactive: 22.2%
45 | Cc1nc2c(C(=O)N3CCOCC3)cnn2c(C)c1Cc1ccc(Cl)cc1 |  | inactive: -1.56%
46 | Cc1c(CN(C)C(=O)c2cc(-c3ccccc3)nc3ccc(Br)cc23)cnn1C | inconclusive: 3.55 µM [inhibitor, partial curve, poor fit] | 
47 | NS(=O)(=O)c1cccc(NC(=O)Nc2ccc(Cl)cc2)c1 |  | inactive: -1.13% [at 46.1 µM]
48 | Cc1nn(Cc2ccc(C(=O)O)o2)c(C)c1[N+](=O)[O-] |  | inactive: -14.9% [at 46.1 µM]

Part of the list above, in markdown.

| Row | SMILES | Potency | activity change, negative = inhibition |
| --- | --- | --- | --- |
| 45 | Cc1nc2c(C(=O)N3CCOCC3)cnn2c(C)c1Cc1ccc(Cl)cc1 |  | inactive: -1.56% |
| 46 | Cc1c(CN(C)C(=O)c2cc(-c3ccccc3)nc3ccc(Br)cc23)cnn1C | inconclusive: 3.55 µM [inhibitor, partial curve, poor fit] |  |

Carrying on.

Row | SMILES | Potency | activity change, negative = inhibition
49 | O=C(Nc1ccc(F)cc1)c1cn(-c2ccccc2)nc1-c1ccncc1 | inconclusive: 11.2 µM [inhibitor, partial curve, poor fit] | 
50 | O=C(CCCSc1nc2ccccc2s1)Nc1nccs1 | inconclusive: 29.1 µM [inhibitor, single point] | 
51 | Cc1cc(C(=O)CN2C(=O)c3ccccc3S2(=O)=O)c(C)n1-c1ccccc1 | active: 8.91 µM | 
52 | CCCc1cc2c(=O)c(-c3cscn3)c(C(=O)OCC)oc2cc1O |  | inactive: 4.06%
53 | Cc1ccc(S(=O)(=O)NC(=O)COc2ccc([N+](=O)[O-])cc2)cc1 | inconclusive: 22.4 µM [activator, partial curve, poor fit] | 
54 | O=C1c2ccccc2C(=O)N1CCCCSc1nc2ccccc2c(=O)n1CCCN1CCOCC1 | inconclusive: 15.8 µM [inhibitor, single point] | 
55 | O=C(Nc1ccccc1)c1ccc(CSc2ccccn2)cc1 | inconclusive: 1 µM [activator, single point] | 
56 | Cc1occc1C(=O)NNC(=O)Nc1ccc(F)cc1F |  | inactive: 9.74%
57 | O=C(Cn1nc(-c2nn(CC(=O)c3ccccc3)c3[n+]2CCCCC3)[n+]2c1CCCCC2)c1ccccc1 |  | inactive: 0.103% [at 46.1 µM]
58 | CC(C)c1ccc(S(=O)(=O)c2cn(CC(=O)Nc3ccc(F)cc3)c3ccccc3c2=O)cc1 |  | inactive: 0.302% [at 46.1 µM]
59 | O=C(Nc1nc2ccccc2[nH]1)c1ccccc1OC(F)F | inconclusive: 6.31 µM [inhibitor, full curve, poor fit] | 
60 | COc1cc(NS(=O)(=O)c2ccc(N/C=C(\C#N)c3nc4cc(Cl)ccc4o3)cc2)nc(OC)n1 | inconclusive: 11.2 µM [inhibitor, partial curve, poor fit] | 
61 | OCCCN=c1cc(-c2ccccc2)oc2ccc(Cl)cc12 | inconclusive: 35.5 µM [inhibitor, single point] | 
62 | C/C(=N\Nc1nc2ccccc2[nH]1)c1ccc(Cl)s1 | inconclusive: 35.5 µM [inhibitor, single point] | 
63 | O=C(CN1C(=O)CC(c2ccco2)Sc2ccccc21)Nc1cccc(C(F)(F)F)c1 (stereo unspecified) | inconclusive: 35.5 µM [inhibitor, single point] | 
64 | CC(C)C(c1nnnn1C1CCCCC1)N1CCN(c2ncccn2)CC1 (stereo unspecified) |  | inactive: 19.7%
65 | O=c1c2ccccc2nc2n1CCCN2 | inconclusive: 11.2 µM [activator, single point] | 
66 | O=C(COc1ccc(Br)cc1Cl)Nn1cnnc1 |  | inactive: 27.1% [at 46.1 µM]
67 | CN(C)CCCNCCCCNC(=O)/C=N\O | inconclusive: 35.5 µM [activator, single point] | 
68 | CC(=O)NCCC1CCN(C(=O)c2cc(COc3ccc(C)nc3)on2)CC1 |  | inactive: 0.594% [at 46.1 µM]
69 | Cc1cc(C)n2nc(-c3ccsc3-n3c(C)ccc3C)cc2n1 | inconclusive: 3.55 µM [inhibitor, single point] | 
70 | COC1OC2COC(c3ccccc3)OC2C(=O)C1NC(=O)c1ccccc1 (stereo unspecified) |  | inactive: 6.21%
71 | CCN(CC)S(=O)(=O)c1ccc(Cl)c(C(=O)N2CCc3ccccc32)c1 | inconclusive: 1.41 µM [inhibitor, partial curve, poor fit] | 
